# Laboratory results taken from the supplement of paper PMC8728848.
# The other results are listed elsewhere or left out.
# B1: B3GalT2 (Rattus norvegicus) (protein)
# chain: LMLQWRRRHCCFAKMSWNAKRSLFRTHLMGVLSLVFLFAMFLFFNHHDWLPGRPGFKENPVTYTFRGFRSTKTETNQSSLRNIWKEVVPQTLRPQTATNSNNTELSPQGVTGLENTLSANGSIYNEKGTGHPNSYHFKYIINEPEKCQEKSPFLILLIAAEPGQIEARRAIRQTWGNETLAPGIQITRIFLLGISIKLNGYLQHAIQEESIQYHDIIQQEYLDTYYNLTIKTLMGMNWVATYCPHTPYVMKTDSDMFVNTEYLIHKLLKPDLPPRHNYFTGYLMRGYAPNRNKDSKWYMPPDLYPSERYPVFCSGTGYVFSGDLAEKIFKVSLGIRRLHLEDVYVGICLAKLRVDPVPPPNEFVFNHWRVSYSSCKYSHLITSHQFQPSELIKYWNHLQQNKHNACVNAAKEKAGRYRHRKLH
# Legend:
# Assay in all cases: glycan array binding signal (z-score within array); higher = stronger binding
# Conditions in all cases: glycan notation: IUPAC condensed, linker removed
# [1] = biological target: Gal(b1-4)GlcNAc(b1-3)Gal(b1-4)GlcNAc(b1-2)[Gal(b1-4)GlcNAc(b1-3)Gal(b1-4)GlcNAc(b1-6)]Man(a1-6)[Gal(b1-4)GlcNAc(b1-3)Gal(b1-4)GlcNAc(b1-2)Man(a1-3)]Man(b1-4)GlcNAc(b1-4)GlcNAc
# Procedure, shortened: (§1)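 The binding signal is a Z-score computed within each array and averaged over linkers. Arrays of the same protein sequence at different concentrations or buffers were also averaged together. Data originate from 3228 arrays in the Consortium for Functional Glycomics database, kept only where the protein sequence was available.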
# [2] = biological target: Gal(b1-4)GlcNAc(b1-3)Gal(b1-4)GlcNAc(b1-2)[Gal(b1-4)GlcNAc(b1-3)Gal(b1-4)GlcNAc(b1-6)]Man(a1-6)[Gal(b1-4)GlcNAc(b1-3)Gal(b1-4)GlcNAc(b1-2)Man(a1-3)]Man(b1-4)GlcNAc(b1-4)[Fuc(a1-6)]GlcNAc
# Procedure, shortened: as §1
# [3] = biological target: Gal(b1-4)GlcNAc(b1-3)Gal(b1-4)GlcNAc(b1-3)Gal(b1-4)GlcNAc
# Procedure, shortened: as §1
# [4] = biological target: Gal(b1-4)GlcNAc(b1-3)Gal(b1-4)GlcNAc(b1-3)Gal(b1-4)GlcNAc(b1-2)Man(a1-3)[Gal(b1-4)GlcNAc(b1-3)Gal(b1-4)GlcNAc(b1-3)Gal(b1-4)GlcNAc(b1-2)Man(a1-6)]Man(b1-4)GlcNAc(b1-4)GlcNAc
# Procedure, shortened: as §1
# [5] = biological target: Gal(b1-4)GlcNAc(b1-3)Gal(b1-4)GlcNAc(b1-3)Gal(b1-4)GlcNAc(b1-2)Man(a1-3)[Gal(b1-4)GlcNAc(b1-3)Gal(b1-4)GlcNAc(b1-3)Gal(b1-4)GlcNAc(b1-2)Man(a1-6)]Man(b1-4)GlcNAc(b1-4)[Fuc(a1-6)]GlcNAc
# Procedure, shortened: as §1
# [6] = biological target: Gal(b1-4)GlcNAc(b1-3)Gal(b1-4)GlcNAc(b1-3)Gal(b1-4)GlcNAc(b1-2)[Gal(b1-4)GlcNAc(b1-3)Gal(b1-4)GlcNAc(b1-3)Gal(b1-4)GlcNAc(b1-6)]Man(a1-6)[Gal(b1-4)GlcNAc(b1-3)Gal(b1-4)GlcNAc(b1-3)Gal(b1-4)GlcNAc(b1-2)Man(a1-3)]Man(b1-4)GlcNAc(b1-4)[Fuc(a1-6)]GlcNAc
# Procedure, shortened: as §1
# [7] = biological target: Gal(b1-4)GlcNAc(b1-3)Gal(b1-4)GlcNAc(b1-3)Gal(b1-4)GlcNAc(b1-3)Gal(b1-4)GlcNAc(b1-2)Man(a1-3)[Gal(b1-4)GlcNAc(b1-3)Gal(b1-4)GlcNAc(b1-3)Gal(b1-4)GlcNAc(b1-3)Gal(b1-4)GlcNAc(b1-2)Man(a1-6)]Man(b1-4)GlcNAc(b1-4)GlcNAc
# Procedure, shortened: as §1
# [8] = biological target: Gal(b1-4)GlcNAc(b1-3)Gal(b1-4)GlcNAc(b1-3)Gal(b1-4)GlcNAc(b1-3)Gal(b1-4)GlcNAc(b1-2)Man(a1-3)[Gal(b1-4)GlcNAc(b1-3)Gal(b1-4)GlcNAc(b1-3)Gal(b1-4)GlcNAc(b1-3)Gal(b1-4)GlcNAc(b1-2)Man(a1-6)]Man(b1-4)GlcNAc(b1-4)[Fuc(a1-6)]GlcNAc
# Procedure, shortened: as §1
# [9] = biological target: Gal(b1-4)GlcNAc(b1-3)Gal(b1-4)GlcNAc(b1-3)Gal(b1-4)GlcNAc(b1-3)Gal(b1-4)GlcNAc(b1-2)[Gal(b1-4)GlcNAc(b1-3)Gal(b1-4)GlcNAc(b1-3)Gal(b1-4)GlcNAc(b1-3)Gal(b1-4)GlcNAc(b1-6)]Man(a1-6)[Gal(b1-4)GlcNAc(b1-3)Gal(b1-4)GlcNAc(b1-3)Gal(b1-4)GlcNAc(b1-3)Gal(b1-4)GlcNAc(b1-2)Man(a1-3)]Man(b1-4)GlcNAc(b1-4)[Fuc(a1-6)]GlcNAc
# Procedure, shortened: as §1
# [10] = biological target: Gal(b1-4)GlcNAc(b1-3)Gal(b1-4)GlcNAc(b1-3)Gal(b1-4)GlcNAc(b1-3)Gal(b1-4)GlcNAc(b1-3)Gal(b1-4)GlcNAc(b1-2)Man(a1-3)[Gal(b1-4)GlcNAc(b1-3)Gal(b1-4)GlcNAc(b1-3)Gal(b1-4)GlcNAc(b1-3)Gal(b1-4)GlcNAc(b1-3)Gal(b1-4)GlcNAc(b1-2)Man(a1-6)]Man(b1-4)GlcNAc(b1-4)GlcNAc
# Procedure, shortened: as §1
# [11] = biological target: Gal(b1-4)GlcNAc(b1-3)Gal(b1-4)GlcNAc(b1-3)Gal(b1-4)GlcNAc(b1-3)Gal(b1-4)GlcNAc(b1-3)Gal(b1-4)GlcNAc(b1-2)Man(a1-3)[Gal(b1-4)GlcNAc(b1-3)Gal(b1-4)GlcNAc(b1-3)Gal(b1-4)GlcNAc(b1-3)Gal(b1-4)GlcNAc(b1-3)Gal(b1-4)GlcNAc(b1-2)Man(a1-6)]Man(b1-4)GlcNAc(b1-4)[Fuc(a1-6)]GlcNAc
# Procedure, shortened: as §1
# [12] = biological target: Gal(b1-4)GlcNAc(b1-3)Gal(b1-4)GlcNAc(b1-3)Gal(b1-4)GlcNAc(b1-3)Gal(b1-4)GlcNAc(b1-3)Gal(b1-4)GlcNAc(b1-2)[Gal(b1-4)GlcNAc(b1-3)Gal(b1-4)GlcNAc(b1-3)Gal(b1-4)GlcNAc(b1-3)Gal(b1-4)GlcNAc(b1-3)Gal(b1-4)GlcNAc(b1-6)]Man(a1-6)[Gal(b1-4)GlcNAc(b1-3)Gal(b1-4)GlcNAc(b1-3)Gal(b1-4)GlcNAc(b1-3)Gal(b1-4)GlcNAc(b1-3)Gal(b1-4)GlcNAc(b1-2)Man(a1-3)]Man(b1-4)GlcNAc(b1-4)[Fuc(a1-6)]GlcNAc
# Procedure, shortened: as §1
# [13] = biological target: Gal(b1-4)GlcNAc(b1-3)Gal(b1-4)GlcNAc(b1-3)Gal(b1-4)GlcNAc(b1-3)Gal(b1-4)GlcNAc(b1-3)Gal(b1-4)GlcNAc(b1-3)Gal(b1-4)GlcNAc(b1-2)Man(a1-3)[Gal(b1-4)GlcNAc(b1-3)Gal(b1-4)GlcNAc(b1-3)Gal(b1-4)GlcNAc(b1-3)Gal(b1-4)GlcNAc(b1-3)Gal(b1-4)GlcNAc(b1-3)Gal(b1-4)GlcNAc(b1-2)Man(a1-6)]Man(b1-4)GlcNAc(b1-4)GlcNAc
# Procedure, shortened: as §1
# [14] = biological target: Gal(b1-4)GlcNAc(b1-3)Gal(b1-4)GlcNAc(b1-3)GalNAc
# Procedure, shortened: as §1
# [15] = biological target: Gal(b1-4)GlcNAc(b1-3)Gal(b1-4)GlcNAc(b1-3)[Gal(b1-4)GlcNAc(b1-3)Gal(b1-4)GlcNAc(b1-6)]GalNAc
# Procedure, shortened: as §1
# [16] = biological target: Gal(b1-4)GlcNAc(b1-3)Gal(b1-4)GlcNAc(b1-6)[Gal(b1-3)]GalNAc
# Procedure, shortened: as §1
# [17] = biological target: Gal(b1-4)GlcNAc(b1-3)Gal(b1-4)[Fuc(a1-3)]GlcNAc(b1-3)Gal(b1-4)[Fuc(a1-3)]GlcNAc
# Procedure, shortened: as §1
# [18] = biological target: Gal(b1-4)GlcNAc(b1-3)GalNAc
# Procedure, shortened: as §1
# [19] = biological target: Gal(b1-4)GlcNAc(b1-3)[Fuc(a1-3)GlcNAc(b1-6)]Gal(b1-4)Glc
# Procedure, shortened: as §1
# [20] = biological target: Gal(b1-4)GlcNAc(b1-3)[Gal(b1-4)GlcNAc(b1-6)]Gal(b1-4)GlcNAc
# Procedure, shortened: as §1
# [21] = biological target: Gal(b1-4)GlcNAc(b1-3)[GlcNAc(b1-6)]Gal(b1-4)GlcNAc
# Procedure, shortened: as §1
# [22] = biological target: Gal(b1-4)GlcNAc(b1-6)Gal(b1-4)GlcNAc
# Procedure, shortened: as §1
# [23] = biological target: Gal(b1-4)GlcNAc(b1-6)GalNAc
# Procedure, shortened: as §1
# [24] = biological target: Gal(b1-4)GlcNAc(b1-6)[Gal(b1-3)]GalNAc
# Procedure, shortened: as §1
# [25] = biological target: Gal(b1-4)GlcNAc(b1-6)[Gal(b1-4)GlcNAc(b1-3)]GalNAc
# Procedure, shortened: as §1
# Gal(b1-4)GlcNAc6P = biological target: Gal(b1-4)GlcNAc6P
# Procedure, shortened: as §1
# Gal(b1-6)Gal = biological target: Gal(b1-6)Gal
# Procedure, shortened: as §1
# Gal3S(b1-3)GalNAc = biological target: Gal3S(b1-3)GalNAc
# Procedure, shortened: as §1
# Gal3S(b1-3)GlcNAc = biological target: Gal3S(b1-3)GlcNAc
# Procedure, shortened: as §1
# [26] = biological target: Gal3S(b1-3)[Fuc(a1-4)]GlcNAc
# Procedure, shortened: as §1
# Gal3S(b1-4)Glc = biological target: Gal3S(b1-4)Glc
# Procedure, shortened: as §1
# Gal3S(b1-4)Glc6S = biological target: Gal3S(b1-4)Glc6S
# Procedure, shortened: as §1
# Gal3S(b1-4)GlcNAc = biological target: Gal3S(b1-4)GlcNAc
# Procedure, shortened: as §1
# [27] = biological target: Gal3S(b1-4)[Fuc(a1-3)]Glc6S
# Procedure, shortened: as §1
# [28] = biological target: Gal3S(b1-4)[Fuc(a1-3)]GlcNAc
# Procedure, shortened: as §1
# [29] = biological target: Gal3S(b1-4)[Fuc(a1-3)]GlcNAc6S
# Procedure, shortened: as §1
# Gal3S4S(b1-4)GlcNAc = biological target: Gal3S4S(b1-4)GlcNAc
# Procedure, shortened: as §1
binder,measurement,setting,value
B1,glycan array binding signal (z-score),[1],-0.101
same,glycan array binding signal (z-score),[2],-0.963
same,glycan array binding signal (z-score),[3],-0.305
same,glycan array binding signal (z-score),[4],1.32
same,glycan array binding signal (z-score),[5],-0.835
same,glycan array binding signal (z-score),[6],-0.937
same,glycan array binding signal (z-score),[7],0.027
same,glycan array binding signal (z-score),[8],-0.286
same,glycan array binding signal (z-score),[9],0.196
same,glycan array binding signal (z-score),[10],1.48
same,glycan array binding signal (z-score),[11],0.111
same,glycan array binding signal (z-score),[12],1.2
same,glycan array binding signal (z-score),[13],-0.978
same,glycan array binding signal (z-score),[14],0.143
same,glycan array binding signal (z-score),[15],-0.734
same,glycan array binding signal (z-score),[16],0.38
same,glycan array binding signal (z-score),[17],-0.566
same,glycan array binding signal (z-score),[18],0.538
same,glycan array binding signal (z-score),[19],-0.56
same,glycan array binding signal (z-score),[20],-0.553
same,glycan array binding signal (z-score),[21],-0.287
same,glycan array binding signal (z-score),[22],0.189
same,glycan array binding signal (z-score),[23],0.384
same,glycan array binding signal (z-score),[24],0.012
same,glycan array binding signal (z-score),[25],0.46
same,glycan array binding signal (z-score),Gal(b1-4)GlcNAc6P,0.324
same,glycan array binding signal (z-score),Gal(b1-6)Gal,-0.134
same,glycan array binding signal (z-score),Gal3S(b1-3)GalNAc,0.283
same,glycan array binding signal (z-score),Gal3S(b1-3)GlcNAc,0.27
same,glycan array binding signal (z-score),[26],0.497
same,glycan array binding signal (z-score),Gal3S(b1-4)Glc,0.307
same,glycan array binding signal (z-score),Gal3S(b1-4)Glc6S,0.421
same,glycan array binding signal (z-score),Gal3S(b1-4)GlcNAc,0.129
same,glycan array binding signal (z-score),[27],-0.161
same,glycan array binding signal (z-score),[28],0.787
same,glycan array binding signal (z-score),[29],0.613
same,glycan array binding signal (z-score),Gal3S4S(b1-4)GlcNAc,0.948

# Another view of part of the listing above.
binder	measurement	setting	value
B1	glycan array binding signal (z-score)	[23]	0.384
same	glycan array binding signal (z-score)	[24]	0.012
same	glycan array binding signal (z-score)	[25]	0.46
same	glycan array binding signal (z-score)	Gal(b1-4)GlcNAc6P	0.324
same	glycan array binding signal (z-score)	Gal(b1-6)Gal	-0.134
same	glycan array binding signal (z-score)	Gal3S(b1-3)GalNAc	0.283
same	glycan array binding signal (z-score)	Gal3S(b1-3)GlcNAc	0.27
same	glycan array binding signal (z-score)	[26]	0.497
same	glycan array binding signal (z-score)	Gal3S(b1-4)Glc	0.307
same	glycan array binding signal (z-score)	Gal3S(b1-4)Glc6S	0.421
same	glycan array binding signal (z-score)	Gal3S(b1-4)GlcNAc	0.129
